Test system: mSWI/SNF complexes
Test: mSWI/SNF complex purification with HA-tagged baits and mass spectrometry (peptide counts)
Design: species or system human
[1] = 293_HA-BRD7 bait purification, mass spectrometry, total peptides per co-purified protein
[2] = 293_HA-BRD7 bait purification, mass spectrometry, unique peptides per co-purified protein

Molecule	Total (293_HA-BRD7: HA-BRD7 bait purification, total peptide count per co-purified protein)	Unique (293_HA-BRD7: HA-BRD7 bait purification, unique peptide count per co-purified protein)	Total (293_HA-DPF2 purification, total peptides)	Unique (293_HA-DPF2 purification, unique peptides)	Total [1]	Unique [2]
SMARCD3 (protein) AADEVAGGARKATKSKLFEFLVHGVRPGMPSGARMPHQGAPMGPPGSPYMGSPAVRPGLAPAGMEPARKRAAPPPGQSQAQSQGQPVPTAPARSRSAKRRKMADKILPQRIRELVPESQAYMDLLAFERKLDQTIMRKRVDIQEALKRPMKQKRKLRLYISNTFNPAKPDAEDSDGSIASWELRVEGKLLDDPSKQKRKFSSFFKSLVIELDKDLYGPDNHLVEWHRTPTTQETDGFQVKRPGDLSVRCTLLLMLDYQPPQFKLDPRLARLLGLHTQSRSAIVQALWQYVKTNRLQDSHDKEYINGDKYFQQIFDCPRLKFSEIPQRLTALLLPPDPIVINHVISVDPSDQKKTACYDIDVEVEEPLKGQMSSFLLSTANQQEISALDSKIHETIESINQLKIQRDFMLSFSRDPKGYVQDLLRSQSRDLKVMTDVAGNPEEERRAEFYHQPWSQEAVSRYFYCKIQQRRQELEQSLVVRNT	23	20	23	20	–	–
ATP5L (protein, UniProt O75964 2-103, looked up) ATP synthase F(0) complex …: AQFVRNLVEKTPALVNAAVTYSKPRLATFWYYAKVELVPPTPAEIPRAIQSLKKIVNSAQTGSFKQLTVKEAVLNGLVATEVLMWFYVGEIIGKRGIIGYDV	–	–	–	–	3	3
HNRNPA0 (protein, UniProt Q13151 1-305, looked up) Heterogeneous nuclear …: MENSQLCKLFIGGLNVQTSESGLRGHFEAFGTLTDCVVVVNPQTKRSRCFGFVTYSNVEEADAAMAASPHAVDGNTVELKRAVSREDSARPGAHAKVKKLFVGGLKGDVAEGDLIEHFSQFGTVEKAEIIADKQSGKKRGFGFVYFQNHDAADKAAVVKFHPIQGHRVEVKKAVPKEDIYSGGGGGGSRSSRGGRGGRGRGGGRDQNGLSKGGGGGYNSYGGYGGGGGGGYNAYGGGGGGSSYGGSDYGNGFGGFGSYSQHQSSYGPMKSGGGGGGGGSSWGGRSNSGPYRGGYGGGGGYGGSSF	–	–	–	–	3	2
CDC5L (protein, UniProt Q99459 1-802, looked up) Cell division cycle 5-like …: MPRIMIKGGVWRNTEDEILKAAVMKYGKNQWSRIASLLHRKSAKQCKARWYEWLDPSIKKTEWSREEEEKLLHLAKLMPTQWRTIAPIIGRTAAQCLEHYEFLLDKAAQRDNEEETTDDPRKLKPGEIDPNPETKPARPDPIDMDEDELEMLSEARARLANTQGKKAKRKAREKQLEEARRLAALQKRRELRAAGIEIQKKRKRKRGVDYNAEIPFEKKPALGFYDTSEENYQALDADFRKLRQQDLDGELRSEKEGRDRKKDKQHLKRKKESDLPSAILQTSGVSEFTKKRSKLVLPAPQISDAELQEVVKVGQASEIARQTAEESGITNSASSTLLSEYNVTNNSVALRTPRTPASQDRILQEAQNLMALTNVDTPLKGGLNTPLHESDFSGVTPQRQVVQTPNTVLSTPFRTPSNGAEGLTPRSGTTPKPVINSTPGRTPLRDKLNINPEDGMADYSDPSYVKQMERESREHLRLGLLGLPAPKNDFEIVLPENAEKELEEREIDDTYIEDAADVDARKQAIRDAERVKEMKRMHKAVQKDLPRPSEVNETILRPLNVEPPLTDLQKSEELIKKEMITMLHYDLLHHPYEPSGNKKGKTVGFGTNNSEHITYLEHNPYEKFSKEELKKAQDVLVQEMEVVKQGMSHGELSSEAYNQVWEECYSQVLYLPGQSRYTRANLASKKDRIESLEKRLEINRGHMTTEAKRAAKMEKKMKILLGGYQSRAMGLMKQLNDLWDQIEQAHLELRTFEELKKHEDSAIPRRLECLKEDVQRQQEREKELQHRYADLLLEKETLKSKF	–	–	–	–	3	2
HM13 (protein, UniProt Q8TCT9 1-377, looked up) Signal peptide peptidase: MDSALSDPHNGSAEAGGPTNSTTRPPSTPEGIALAYGSLLLMALLPIFFGALRSVRCARGKNASDMPETITSRDAARFPIIASCTLLGLYLFFKIFSQEYINLLLSMYFFVLGILALSHTISPFMNKFFPASFPNRQYQLLFTQGSGENKEEIINYEFDTKDLVCLGLSSIVGVWYLLRKHWIANNLFGLAFSLNGVELLHLNNVSTGCILLGGLFIYDVFWVFGTNVMVTVAKSFEAPIKLVFPQDLLEKGLEANNFAMLGLGDVVIPGIFIALLLRFDISLKKNTHTYFYTSFAAYIFGLGLTIFIMHIFKHAQPALLYLVPACIGFPVLVALAKGEVTEMFSYEESNPKDPAAVTESKEGTEASASKGLEKKEK	–	–	–	–	3	2
ZCCHC17 (protein, UniProt Q9NP64 1-241, looked up) Zinc finger CCHC …: MNSGRPETMENLPALYTIFQGEVAMVTDYGAFIKIPGCRKQGLVHRTHMSSCRVDKPSEIVDVGDKVWVKLIGREMKNDRIKVSLSMKVVNQGTGKDLDPNNVIIEQEERRRRSFQDYTGQKITLEAVLNTTCKKCGCKGHFAKDCFMQPGGTKYSLIPDEEEEKEEAKSAEFEKPDPTRNPSRKRKKEKKKKKHRDRKSSDSDSSDSESDTGKRARHTSKDSKAAKKKKKKKKHKKKHKE	–	–	–	–	3	2
TRA2B (protein, UniProt P62995 2-288, looked up) Transformer-2 protein homolog …: SDSGEQNYGERESRSASRSGSAHGSGKSARHTPARSRSKEDSRRSRSKSRSRSESRSRSRRSSRRHYTRSRSRSRSHRRSRSRSYSRDYRRRHSHSHSPMSTRRRHVGNRANPDPNCCLGVFGLSLYTTERDLREVFSKYGPIADVSIVYDQQSRRSRGFAFVYFENVDDAKEAKERANGMELDGRRIRVDFSITKRPHTPTPGIYMGRPTYGSSRRRDYYDRGYDRGYDDRDYYSRSYRGGGGGGGGWRAAQDRDQIYRRRSPSPYYSRGGYRSRSRSRSYSPRRY	–	–	–	–	2	2
EWSR1 (protein, UniProt Q01844 1-656, looked up) RNA-binding protein EWS: MASTDYSTYSQAAAQQGYSAYTAQPTQGYAQTTQAYGQQSYGTYGQPTDVSYTQAQTTATYGQTAYATSYGQPPTGYTTPTAPQAYSQPVQGYGTGAYDTTTATVTTTQASYAAQSAYGTQPAYPAYGQQPAATAPTRPQDGNKPTETSQPQSSTGGYNQPSLGYGQSNYSYPQVPGSYPMQPVTAPPSYPPTSYSSTQPTSYDQSSYSQQNTYGQPSSYGQQSSYGQQSSYGQQPPTSYPPQTGSYSQAPSQYSQQSSSYGQQSSFRQDHPSSMGVYGQESGGFSGPGENRSMSGPDNRGRGRGGFDRGGMSRGGRGGGRGGMGSAGERGGFNKPGGPMDEGPDLDLGPPVDPDEDSDNSAIYVQGLNDSVTLDDLADFFKQCGVVKMNKRTGQPMIHIYLDKETGKPKGDATVSYEDPPTAKAAVEWFDGKDFQGSKLKVSLARKKPPMNSMRGGLPPREGRGMPPPLRGGPGGPGGPGGPMGRMGGRGGDRGGFPPRGPRGSRGNPSGGGNVQHRAGDWQCPNPGCGNQNFAWRTECNQCKAPKPEGFLPPPFPPPGGDRGRGGPGGMRGGRGGLMDRGGPGGMFRGGRGGDRGGFRGGRGMDRGGFGGGRRGGPGGPPGPLMEQMGGRRGGRGGPGKMDKGEHRQERRDRPY	–	–	–	–	2	2
DAZAP1 (protein, UniProt Q96EP5 1-407, looked up) DAZ-associated protein 1: MNNSGADEIGKLFVGGLDWSTTQETLRSYFSQYGEVVDCVIMKDKTTNQSRGFGFVKFKDPNCVGTVLASRPHTLDGRNIDPKPCTPRGMQPERTRPKEGWQKGPRSDNSKSNKIFVGGIPHNCGETELREYFKKFGVVTEVVMIYDAEKQRPRGFGFITFEDEQSVDQAVNMHFHDIMGKKVEVKRAEPRDSKSQAPGQPGASQWGSRVVPNAANGWAGQPPPTWQQGYGPQGMWVPAGQAIGGYGPPPAGRGAPPPPPPFTSYIVSTPPGGFPPPQGFPQGYGAPPQFSFGYGPPPPPPDQFAPPGVPPPPATPGAAPLAFPPPPSQAAPDMSKPPTAQPDFPYGQYAGYGQDLSGFGQGFSDPSQQPPSYGGPSVPGSGGPPAGGSGFGRGQNHNVQGFHPYRR	–	–	–	–	2	2
COPB1 (protein, UniProt P53618 2-953, looked up) Coatomer subunit beta: TAAENVCYTLINVPMDSEPPSEISLKNDLEKGDVKSKTEALKKVIIMILNGEKLPGLLMTIIRFVLPLQDHTIKKLLLVFWEIVPKTTPDGRLLHEMILVCDAYRKDLQHPNEFIRGSTLRFLCKLKEAELLEPLMPAIRACLEHRHSYVRRNAVLAIYTIYRNFEHLIPDAPELIHDFLVNEKDASCKRNAFMMLIHADQDRALDYLSTCIDQVQTFGDILQLVIVELIYKVCHANPSERARFIRCIYNLLQSSSPAVKYEAAGTLVTLSSAPTAIKAAAQCYIDLIIKESDNNVKLIVLDRLIELKEHPAHERVLQDLVMDILRVLSTPDLEVRKKTLQLALDLVSSRNVEELVIVLKKEVIKTNNVSEHEDTDKYRQLLVRTLHSCSVRFPDMAANVIPVLMEFLSDNNEAAAADVLEFVREAIQRFDNLRMLIVEKMLEVFHAIKSVKIYRGALWILGEYCSTKEDIQSVMTEIRRSLGEIPIVESEIKKEAGELKPEEEITVGPVQKLVTEMGTYATQSALSSSRPTKKEEDRPPLRGFLLDGDFFVAASLATTLTKIALRYVALVQEKKKQNSFVAEAMLLMATILHLGKSSLPKKPITDDDVDRISLCLKVLSECSPLMNDIFNKECRQSLSHMLSAKLEEEKLSQKKESEKRNVTVQPDDPISFMQLTAKNEMNCKEDQFQLSLLAAMGNTQRKEAADPLASKLNKVTQLTGFSDPVYAEAYVHVNQYDIVLDVLVVNQTSDTLQNCTLELATLGDLKLVEKPSPLTLAPHDFANIKANVKVASTENGIIFGNIVYDVSGAASDRNCVVLSDIHIDIMDYIQPATCTDAEFRQMWAEFEWENKVTVNTNMVDLNDYLQHILKSTNMKCLTPEKALSGYCGFMAANLYARSIFGEDALANVSIEKPIHQGPDAAVTGHIRIRAKSQGMALSLGDKINLSQKKTSI	–	–	–	–	2	2
HSD17B10 (protein, UniProt Q99714 2-261, looked up) 3-hydroxyacyl-CoA …: AAACRSVKGLVAVITGGASGLGLATAERLVGQGASAVLLDLPNSGGEAQAKKLGNNCVFAPADVTSEKDVQTALALAKGKFGRVDVAVNCAGIAVASKTYNLKKGQTHTLEDFQRVLDVNLMGTFNVIRLVAGEMGQNEPDQGGQRGVIINTASVAAFEGQVGQAAYSASKGGIVGMTLPIARDLAPIGIRVMTIAPGLFGTPLLTSLPEKVCNFLASQVPFPSRLGDPAEYAHLVQAIIENPFLNGEVIRLDGAIRMQP	–	–	–	–	2	2
